Results are given in words; binding and its absence hold for the method and conditions named. Some binding calls cover weakened binding; strength is not graded here.
What was measured:
[1] = target: PII-Venus (Synechococcus elongatus PII protein with its C-terminus fused to the fluorescent Venus protein) (Synechococcus elongatus) (UniProt P0A3F4); assay: FRET or BRET; competition: plate reader (Tecan Infinite 200, 96-well), PII-V and NAGK-C 0.1 uM each with 0.1, 0.5 or 1.0 uM PipX, 1 mM ATP with increasing ADP; 50 mM imidazole pH 7.5, 50 mM KCl, 20 mM MgCl2, 0.5 mM DTT; both purified
[2] = target: PII-Venus (Synechococcus elongatus PII protein with its C-terminus fused to the fluorescent Venus protein) (Synechococcus elongatus) (UniProt P0A3F4); assay: FRET or BRET; competition in 1 ml cuvettes (FluoroMax-2): PII-V 0.1 uM preincubated 1 h at 37°C with or without ATP, then NAGK-C 0.1 uM and PipX 1 uM added with ATP (10, 100, 1000 uM) or 1:1 ATP+ADP (5, 50, 500 uM each), FRET read after 15 min; 50 mM imidazole pH 7.5, 50 mM KCl, 20 mM MgCl2, 0.5 mM DTT; both purified

By UniProt entry, the sequences of proteins in these tests, tags left out.
UniProt P0A3F4: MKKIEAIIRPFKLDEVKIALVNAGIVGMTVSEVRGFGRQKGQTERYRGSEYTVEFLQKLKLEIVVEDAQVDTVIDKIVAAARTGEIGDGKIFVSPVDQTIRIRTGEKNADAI

B1: PipX (protein, UniProt Q7X386 1-89)
chain: MASENYLNHPTFGLLYQICSFGDSKELFATLYAQRLFFLVAFDARGTRFEPIGRNEARMLVDNRLRQLRRDASLQEYNQLQQVFKQTFL
In the case of B1, the binding [1] is reported as “binds” and the binding [2] is reported as “binds”.

Reference: article PMC4552645
